# Measured values reported in patent US20260102487A1.
# Where a chain is given by its changes, count along the chain named. Results are given in words; binding and its absence hold for the method and conditions named. Binding can be weak; no strength is given.
# B1: BsAb-1 (IL2RB_F09C**IL2RG_F16A) (bispecific antibody, human IgG4, V domains shown, not shown: small tags and cut ends)
# V domain 1: QVQLQESGPGLVKPSGTLSLTCAVSGGSISSSDWWSWVRQPPGKGLEWIGEIDHSGSTNYNPSLMSRVTISVDKSKNQFSLKLSSVTAADTAVYFCGRGSWELSDAFDIRGQGTLVTVSS
# V domain 2: QVQLVESGGGLVKPGGSLRLSCAASGFTFSDYYMSWIRQAPGKGLEWVSSISSSGDTIYYADSVQGRFTLSRDNAENSLFLQMNSLRAEDTAVYYCARGDAVSITGDYRGQGTLVTVSS
# B2: BsAb-2 (IL2RB_F09G**IL2RG_F16B) (bispecific antibody, human IgG4, V domains shown, not shown: small tags and cut ends)
# V domain 1: B1 V domain 1 with P14S, G16E, A23T, G97A, S104T
# V domain 2: B1 V domain 2 with S50Y, D56S, Q65K, L70I, E76K, F80Y
# B3: BsAb-5 (IL2RB_F09K**IL2RG_F16B) (bispecific antibody, human IgG4, V domains shown, not shown: small tags and cut ends)
# V domain 1: B1 V domain 1 with G8S, G16E, A23T, D33N, D53S, M65K, K82R, S104T
# V domain 2: B1 V domain 2 with S50Y, D56S, Q65K, L70I, E76K, F80Y
# B4: BsAb-6 (IL2RB_F18E**IL2RG_F16A) (bispecific antibody, human IgG4, V domains shown, not shown: small tags and cut ends)
# V domain 1: QVQLVESGGGVVQPGRSLRLSCAASGFTFSSYGMHWVRQAPGKEREWVAVISYDGSNKYYTDSVKGRFTISRDNSKNTLYLEMNSLRAEDTAVYYCARDLDYDVLTGDPVGGFDIWGQGTLVTVSS
# V domain 2: B1 V domain 2
# B5: BsAb-4 (IL2RB_F09G**IL2RG_F18A) (bispecific antibody, human IgG4, V domains shown, not shown: small tags and cut ends)
# V domain 1: B1 V domain 1 with P14S, G16E, A23T, G97A, S104T
# V domain 2: QVQLVESGGDLVKPGGSLRLSCAASGFTFSDYYMSWLRQAPGKELEWVSHISSSGTTTYYADSVEGRFTITRDNAKNSLYLQMNSLRAEDTAVYYCARGAAVAPGFDSRGQGTLVTVSS
# B6: BsAb-3 (IL2RB_F09G**IL2RG_F16C) (bispecific antibody, human IgG4, V domains shown, not shown: small tags and cut ends)
# V domain 1: B1 V domain 1 with P14S, G16E, A23T, G97A, S104T
# V domain 2: B1 V domain 2 with S30N, S50H, D56S, Q65K, L70V, E76N, F80Y, N84H
# Target: cynomolgus IL-2Rβγ receptor on cynomolgus T-cells (PBMCs) (cynomolgus)
# Assay: flow cytometry on cynomolgus T-cells
row,binding,Binder
1,binds,B1
2,binds,B2
3,binds,B3
4,binds,B4
5,binds,B5
6,binds,B6

# Target: cynomolgus IL-2Rβγ receptor on cynomolgus T-cells (PBMCs) (cynomolgus)
# Assay: flow cytometry cell binding on cynomolgus CD8+ T-cells (PBMC), gMFI as fold over secondary antibody only
row,binding,Binder
1,binds,B1
2,binds,B2
3,binds,B3
4,binds,B4
5,binds,B5
6,binds,B6
